Measured values from patent publication US20100266575A1.
No constants are given. Whether binding was seen depends on the method and setting. Some results given as binding are weak or reduced against the parent protein; the word gives no strength.

Amino acid sequences for entries named in this document (tags omitted). A change or cut given only in a name is not applied to a line headed by its entry.
UniProt P17948: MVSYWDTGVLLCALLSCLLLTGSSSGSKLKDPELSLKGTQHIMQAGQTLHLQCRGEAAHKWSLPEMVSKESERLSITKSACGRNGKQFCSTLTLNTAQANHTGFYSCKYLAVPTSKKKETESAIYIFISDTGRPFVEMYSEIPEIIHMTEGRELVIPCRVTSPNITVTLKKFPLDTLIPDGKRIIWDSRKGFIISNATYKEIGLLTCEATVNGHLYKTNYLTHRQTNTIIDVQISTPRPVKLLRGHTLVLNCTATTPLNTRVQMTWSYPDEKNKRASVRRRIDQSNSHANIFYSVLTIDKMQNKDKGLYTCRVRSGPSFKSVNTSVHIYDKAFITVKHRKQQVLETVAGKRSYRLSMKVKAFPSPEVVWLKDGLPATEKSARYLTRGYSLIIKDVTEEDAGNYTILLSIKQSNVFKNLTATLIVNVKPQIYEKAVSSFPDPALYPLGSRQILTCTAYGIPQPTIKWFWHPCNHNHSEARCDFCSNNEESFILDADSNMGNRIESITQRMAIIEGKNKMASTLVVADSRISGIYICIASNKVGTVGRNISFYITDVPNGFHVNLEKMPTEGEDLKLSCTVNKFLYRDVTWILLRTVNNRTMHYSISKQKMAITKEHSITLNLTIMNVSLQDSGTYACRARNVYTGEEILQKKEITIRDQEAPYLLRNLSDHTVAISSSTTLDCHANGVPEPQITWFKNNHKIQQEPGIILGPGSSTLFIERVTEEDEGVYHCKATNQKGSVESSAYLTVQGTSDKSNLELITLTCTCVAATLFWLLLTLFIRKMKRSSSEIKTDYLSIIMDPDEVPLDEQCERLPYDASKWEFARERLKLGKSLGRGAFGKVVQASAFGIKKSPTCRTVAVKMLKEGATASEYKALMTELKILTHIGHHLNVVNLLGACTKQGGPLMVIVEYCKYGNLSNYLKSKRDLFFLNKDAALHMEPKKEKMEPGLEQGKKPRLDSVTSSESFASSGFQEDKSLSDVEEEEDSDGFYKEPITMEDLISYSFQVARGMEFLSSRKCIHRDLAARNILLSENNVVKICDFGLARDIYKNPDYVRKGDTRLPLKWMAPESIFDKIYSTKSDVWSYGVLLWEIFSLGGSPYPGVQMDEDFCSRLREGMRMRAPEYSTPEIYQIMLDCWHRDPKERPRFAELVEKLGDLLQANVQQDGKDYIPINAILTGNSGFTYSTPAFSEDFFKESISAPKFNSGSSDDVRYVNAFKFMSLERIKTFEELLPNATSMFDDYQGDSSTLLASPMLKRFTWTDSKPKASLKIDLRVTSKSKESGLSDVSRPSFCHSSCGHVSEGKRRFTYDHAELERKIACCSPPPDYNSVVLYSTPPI

Experiments:
[1] = biological target: sFlt-1 (R&D Systems; construct not stated) (human) (UniProt P17948); assay: PlGF added to aliquots of a fixed amount of sFlt-1 before … sandwich immunoassay
[2] = biological target: sFlt-1 domains 1-6:Fc chimera from Sf21 cells using baculovirus (human) (UniProt P17948); assay: sandwich CMIA on … (Example 7): sFlt-1 antigen captured by a mAb on microparticles, PlGF-acridinium as conjugate; positive = RLU > 400,000 at 1,000 pg/mL calibrator

B1: placental growth factor (PlGF) (ligand, UniProt P49763-2 21-149, looked up)
chain: AVPPQQWALSAGNGSSEVEVVPFQEVWGRSYCRALERLVDVVSEYPSEVEHMFSPSCVSLLRCTGCCGDENLHCVPVETANVTMQLLKIRSGDRPSYVELTFSQHVRCECRPLREKMKPERCGDAVPRR
- binding [1]: binds
- binding [2]: binds
